According to publication PMC6684318:
Read-outs that look alike come from different tables or passages of the source. No constants are given. Whether binding was seen depends on the method and setting. In cells and extracts the contact can be indirect. Some results given as binding are weak or reduced against the parent protein; the word gives no strength.

The chains behind the UniProt entries cited, without tags or fusion partners.
UniProt O02274: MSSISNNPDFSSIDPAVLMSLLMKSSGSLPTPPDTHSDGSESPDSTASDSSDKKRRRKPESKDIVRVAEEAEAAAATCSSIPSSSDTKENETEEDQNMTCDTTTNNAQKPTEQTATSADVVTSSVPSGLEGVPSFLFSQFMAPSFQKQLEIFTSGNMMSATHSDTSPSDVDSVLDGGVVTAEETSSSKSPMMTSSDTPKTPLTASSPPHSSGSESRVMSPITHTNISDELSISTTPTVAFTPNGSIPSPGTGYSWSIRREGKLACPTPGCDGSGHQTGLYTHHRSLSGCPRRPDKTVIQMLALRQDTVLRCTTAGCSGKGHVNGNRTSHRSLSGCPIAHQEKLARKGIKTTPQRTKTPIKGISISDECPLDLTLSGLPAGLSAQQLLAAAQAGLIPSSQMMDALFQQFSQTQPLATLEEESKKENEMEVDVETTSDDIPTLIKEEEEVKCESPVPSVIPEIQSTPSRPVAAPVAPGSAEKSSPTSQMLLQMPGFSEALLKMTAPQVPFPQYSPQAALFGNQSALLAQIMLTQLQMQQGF
UniProt A5JYW9: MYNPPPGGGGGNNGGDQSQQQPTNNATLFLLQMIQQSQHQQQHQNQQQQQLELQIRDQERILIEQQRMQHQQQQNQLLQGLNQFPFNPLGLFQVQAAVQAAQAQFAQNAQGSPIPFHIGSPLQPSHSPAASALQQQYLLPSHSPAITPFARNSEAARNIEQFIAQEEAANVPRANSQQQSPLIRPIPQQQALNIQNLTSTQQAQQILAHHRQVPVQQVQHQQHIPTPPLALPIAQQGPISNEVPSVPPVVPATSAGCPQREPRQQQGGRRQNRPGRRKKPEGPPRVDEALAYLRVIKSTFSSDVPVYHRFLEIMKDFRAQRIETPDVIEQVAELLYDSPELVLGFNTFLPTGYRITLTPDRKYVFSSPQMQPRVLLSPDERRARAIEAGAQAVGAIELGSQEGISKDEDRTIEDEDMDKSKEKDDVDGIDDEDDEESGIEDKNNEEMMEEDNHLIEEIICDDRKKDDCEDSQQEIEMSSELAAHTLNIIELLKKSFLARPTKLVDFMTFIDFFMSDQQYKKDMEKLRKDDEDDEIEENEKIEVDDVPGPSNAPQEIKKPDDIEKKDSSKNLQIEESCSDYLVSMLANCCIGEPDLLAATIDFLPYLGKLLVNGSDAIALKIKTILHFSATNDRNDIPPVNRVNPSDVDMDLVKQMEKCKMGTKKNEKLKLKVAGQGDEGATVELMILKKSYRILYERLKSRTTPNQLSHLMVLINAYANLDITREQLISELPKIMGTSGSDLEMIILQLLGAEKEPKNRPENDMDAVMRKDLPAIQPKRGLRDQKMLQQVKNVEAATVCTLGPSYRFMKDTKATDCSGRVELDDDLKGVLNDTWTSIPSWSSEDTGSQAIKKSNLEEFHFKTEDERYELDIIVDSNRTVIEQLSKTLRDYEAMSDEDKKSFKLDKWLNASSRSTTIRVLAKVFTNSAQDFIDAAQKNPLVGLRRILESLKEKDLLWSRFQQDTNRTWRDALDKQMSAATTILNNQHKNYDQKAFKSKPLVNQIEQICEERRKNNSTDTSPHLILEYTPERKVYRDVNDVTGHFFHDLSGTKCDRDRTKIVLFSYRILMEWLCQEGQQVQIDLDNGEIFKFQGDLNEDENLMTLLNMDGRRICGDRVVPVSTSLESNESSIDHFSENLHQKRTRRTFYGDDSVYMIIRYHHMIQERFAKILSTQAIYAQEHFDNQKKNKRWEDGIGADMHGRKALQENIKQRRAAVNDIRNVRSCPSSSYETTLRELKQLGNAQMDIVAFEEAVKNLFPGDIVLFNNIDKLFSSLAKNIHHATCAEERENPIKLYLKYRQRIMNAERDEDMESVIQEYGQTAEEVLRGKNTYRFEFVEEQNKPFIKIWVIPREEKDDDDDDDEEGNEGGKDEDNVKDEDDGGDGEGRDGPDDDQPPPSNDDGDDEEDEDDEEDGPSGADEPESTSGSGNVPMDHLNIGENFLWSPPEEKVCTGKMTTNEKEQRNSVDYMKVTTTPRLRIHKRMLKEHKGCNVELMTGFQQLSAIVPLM

How the values were obtained:
[1] = target: ZTF-11::GFP (Zinc-finger Transcription Factor-11, endogenous GFP knock-in) (C. elegans (endogenous, tagged locus)) (UniProt O02274); assay: co-IP; single molecule pull-down (SiMPull), imaging-based co-immunoprecipitation: worm lysates (7 mg/ml; 50 mM HEPES pH 7.7, 50 mM KCl, 2 mM MgCl2, 250 mM sucrose, 1 mM EDTA, then 100 mM NaCl and 1% Triton X-100) on quartz slides coated with or without biotinylated anti-GFP antibody to hold ZTF-11::GFP; mCherry spots counted by TIRF microscopy
[2] = target: ZTF-11::GFP (Zinc-finger Transcription Factor-11, endogenous GFP knock-in) (C. elegans (endogenous, tagged locus)) (UniProt O02274); assay: as above; remark: listed apart in the source

Molecule | binding [1] | binding [2]
SIN-3::mCherry (endogenous knock-in) (from UniProt A5JYW9 1-1507) | binds weakly | –
mCherry::LIN-9 (endogenous knock-in) (protein, UniProt P30630 1-644) MSSAVRSPRKKAASDTSDPDRTSSPYSLRETSKVPSRYRNEELYLSPSRSIKRTGSPKKSPAKRLNGGRDSPSVNSLTRNSSLTMLAKAALDYESSSCALEYIFQPKEERRPPRRALALSPPPAPSNDLLAKDLEMIEMHQNLVAGLDDLDNPANMTNEAVEHRDTQSFFNMFSTDQERSAMMKQFKTYKNQTSEDVSTFMRANIKKLYNLLRYKKARQWVMCEFFYSAIDEQIFKEENEFATIIRESFPNLKNWNLTRIEWRSIRKLLGKPRRCSKVFFEEERMYLEEKRMKIRSVYEGSYLNDPSIDLKDLPAKLPRPMVVGNRVFARIRNPYDGIYSGIIDAVIPKGFRIIFDKPDIPPTLVSDTEILLDGKLDLLSIAYFIEQANSKLPSGVRPFVAAVRDSSHPHLVRDVLVSRKIERSGGPLMGPNDERLNGKNAEMVGNFPLKFLVNLVKLTKLIDIKKGLIRQLNELNADAEIQNMTSDKYSKAFQEKYAKTIIDLEHVNQNIDINMNGIQDHHMYFSSNDISTSNMKPEAVRQMCSQQAGRFVEHCNQGLNVENVHALTLIQSLTAVLLQVRTMGTQKISAVDLQSLGDAISEIRTAIHPRNVAFFQDYVEVHMKQFHTIMLESGALAGTVSNRK | – | binds
LIN-52::mCherry (endogenous knock-in) (protein, UniProt Q10120 1-161) MSRPLGFIGYEFGDDEMFVQQMIEKKSNAEQAKMLEQQKKMLECTETMPEESEPVPMKCLDFEEAFQSESVSKGYESPYKNISFLKEDAVTVNTMSHCPADDIAKLIRNIQNSVYTLGIEEARQCRRGKLLNVLKPTGSASPRYLQPTPPKNVAEETTGSQ | – | binds
RBA-1::mCherry (endogenous knock-in) (protein, UniProt P90917 1-412) MSEAESCEETSKEHRIWKKNVPYLYDTVVTKEVEWPSLSVQWMPDVTKTENSDSSMHRMIHGTHTCGGVQNHLMISKFTITTDTPEFDDAKWDSEREEFGGYGEGSAAKWDTEIKINHPGEVHRARYMPHNPFIIASRGPSDDVYIFDYTKHPSEPKDTKFRPQLRLKGHEGEGYGMSWSNTREGHLLTAGDDGMICHWDINANQTISGQIVPQSKFKGHSSNAEDVSFHALHNFVFGSVGDDRKLNLWDLRQSKPQLTAVGHTAEVNCITFNPFSEYILATGSVDKTVALWDMRNMRKKMYTLKHHNDEIFQVSFSPHYETVLASSGSDDRVIVWDISKIQDPSSSSAASSDSVPPEVIFIHAGHTGKVADFSWNPNRPWTICSSDEFNALQVWEVSNSLVSSEKWETEMI | – | binds
